System: writhing response in mice
Assay: Writhing response in mice (acetic acid, acetylcholine, kaolin)
Assay type: in vivo
Excerpt: The antinociceptive actions of compound MV 8612 and MV 8608 were investigated in different models of nociception in mice as reported previously (Vaz et al., 1996, J. Pharmacol. Exp. Ther. 278:304–312).

CN1CC[C@]23c4c5ccc(O)c4O[C@H]2[C@@H](O)C=C[C@H]3[C@H]1C5 [MORPHINE, morphine, reference compound]
acetic acid-induced writhes, i.c.v. (MV 8612 4.2 to 42 nmol/site, morphine 0.26 to 13 nmol/site): dose-related antinociception | ID50 ACETIC ACID (i.p., mice, acetic acid-induced writhes): 1.3 (1.0–1.6) μmol/kg

— patent US7109175B1, “Specific steady-state R-type CA2+ channel blockers and use thereof” (Universite de Sherbrooke, priority 2000, dated 2006)
